{
  "source": "paper PMC7717600",
  "about": "“Novel [(N-alkyl-3-indolylmethylene)hydrazono]oxindoles arrest cell cycle and induce cell apoptosis by inhibiting CDK2 and Bcl-2: synthesis, biological evaluation and in silico studies” (Journal of Enzyme Inhibition and Medicinal Chemistry, 2020)",
  "system": "panel of 59 human cancer cell lines",
  "experiment": "NCI screening, panel and subpanel summaries",
  "details": "cell lines with GI % higher than 10% at 10 μM",
  "data": [
    {"compound": "CCCn1cc(C=NN=C2C(=O)Nc3ccc(C)cc32)c2ccccc21", "note": "[Compound 8a]", "values": [
      {"measurement": "Sensitive cell lines no.", "result": 58}
    ]}
  ]
}
